Data as given in PubChem BioAssay AID1259327 (Drosophila RNAi Screening Center, 2017).
Here is an unselected part of about 3,100 reagents tested. 378 of them (12%) were called active. 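Hits include both directions; z-score sign shows ATP rise or fall; raw luminescence values are not plate-normalised.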 Reagent sequences are not shown. Not given: the amount of reagent.

- Test: 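Knock-downs altering cellular ATP with no metal added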
- Cell system: Drosophila S2R+ cells
- Reagent: long dsRNA against Drosophila genes
- Time to read-out: 5 days (water added on day 4, read one day later)
- Treatment: water added as vehicle, no metal, one day before read-out
- Measurement: 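Total ATP measured by luciferase light, scaled to plate mean, duplicates averaged, then z-scored across plates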
- Scale: ATP z-score: higher = more total ATP than typical wells; ATP luminescence: higher = more total ATP
- Hit rule: 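a hit is any knock-down whose absolute ATP z-score is greater than 1.5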
- Meaning of the calls: active = hit: ATP up or down; inactive = no clear ATP change

gene	dsRNA	ATP z-score, duplicate mean	ATP luminescence, replicate 1 (RLU)	ATP luminescence, replicate 2 (RLU)	call
Or85f (Odorant receptor 85f)	DRSC16769	-0.524	2.72e5	7.13e5	inactive
Or85f (Odorant receptor 85f)	DRSC39742	-0.554	3.92e5	4.64e5	inactive
Inx5 (Innexin 5)	DRSC20051	0.0479	7.32e5	7.64e5	inactive
Ir64a (Ionotropic receptor 64a)	DRSC09760	-0.189	9.08e5	8.35e5	inactive
Ir64a (Ionotropic receptor 64a)	DRSC39692	-0.0212	4.87e5	4.40e5	inactive
CG31693	DRSC03674	-0.502	6.45e5	7.34e5	inactive
CG31693	DRSC39586	-0.0176	3.88e5	5.43e5	inactive
Eglp4 (Entomoglyceroporin 4)	DRSC04438	-0.0841	7.20e5	7.15e5	inactive
Eglp4 (Entomoglyceroporin 4)	DRSC25991	0.98	9.69e5	9.75e5	inactive
AstA-R1 (Allatostatin A receptor 1)	DRSC17278	0.517	6.12e5	7.21e5	inactive
AstA-R1 (Allatostatin A receptor 1)	DRSC17727	-0.952	5.37e5	7.45e5	inactive
Or45b (Odorant receptor 45b)	DRSC07488	0.108	6.74e5	5.84e5	inactive
Or45b (Odorant receptor 45b)	DRSC39528	0.15	4.97e5	4.30e5	inactive
Sdc (Syndecan)	DRSC04654	-1.16	6.38e5	5.68e5	inactive
Tmtc2 (Transmembrane O-mannosyltransferase targeting cadherins 2)	DRSC24987	-0.568	8.47e5	6.70e5	inactive
Fas2 (Fasciclin 2)	DRSC17308	0.0503	7.40e5	7.57e5	inactive
Fas2 (Fasciclin 2)	DRSC17309	-1.27	5.16e5	4.93e5	inactive
Fas2 (Fasciclin 2)	DRSC18664	0.541	7.75e5	7.48e5	inactive
snky (sneaky)	DRSC09838	0.864	9.52e5	1.06e6	inactive
snky (sneaky)	DRSC39770	1.05	6.32e5	4.67e5	inactive
Nup44A (Nucleoporin at 44A)	DRSC07248	0.108	7.41e5	7.44e5	inactive
Nup44A (Nucleoporin at 44A)	DRSC28141	2.52	1.07e6	1.22e6	active
CG9459	DRSC16496	0.265	2.93e5	8.37e5	inactive
CG9459	DRSC39459	-2.1	3.32e5	2.97e5	active
Scgalpha (Sarcoglycan alpha)	DRSC03076	0.552	8.15e5	7.55e5	inactive
Scgalpha (Sarcoglycan alpha)	DRSC29625	0.562	8.89e5	8.91e5	inactive
5-HT2B (5-hydroxytryptamine (serotonin) receptor 2B)	DRSC16360	-0.506	2.54e5	7.64e5	inactive
5-HT2B (5-hydroxytryptamine (serotonin) receptor 2B)	DRSC16362	-0.819	2.60e5	6.80e5	inactive
5-HT2B (5-hydroxytryptamine (serotonin) receptor 2B)	DRSC25577	-0.764	7.21e5	7.90e5	inactive
Tapdelta (Translocon-associated protein delta)	DRSC05946	-0.168	6.88e5	7.38e5	inactive
Tapdelta (Translocon-associated protein delta)	DRSC39531	-0.363	4.62e5	3.98e5	inactive
kek3 (kekkon 3)	DRSC22830	0.142	6.02e5	5.82e5	inactive
kek3 (kekkon 3)	DRSC24250	0.726	1.02e6	8.61e5	inactive
CG31431	DRSC14589	2.21	3.44e5	1.14e6	active
CG31431	DRSC39614	1.19	5.61e5	5.31e5	inactive
cdm (cadmus)	DRSC16213	0.439	7.54e5	7.48e5	inactive
Dop1R2 (Dopamine 1-like receptor 2)	DRSC13958	-0.485	8.58e5	8.08e5	inactive
Dop1R2 (Dopamine 1-like receptor 2)	DRSC28272	1.09	1.06e6	8.54e5	inactive
Gr93c (Gustatory receptor 93c)	DRSC14587	-0.7	2.66e5	6.91e5	inactive
moody	DRSC18515	1.08	7.56e5	7.73e5	inactive
Tmem63 (Transmembrane protein 63)	DRSC06063	-0.902	5.80e5	4.96e5	inactive
Tmem63 (Transmembrane protein 63)	DRSC27402	0.196	8.80e5	1.15e6	inactive
mthl3 (methuselah-like 3)	DRSC06997	1.01	8.02e5	8.77e5	inactive
mthl3 (methuselah-like 3)	DRSC24927	-1.11	6.61e5	7.63e5	inactive
Eglp2 (Entomoglyceroporin 2)	DRSC04294	0.947	7.82e5	8.84e5	inactive
Eglp2 (Entomoglyceroporin 2)	DRSC39691	1.09	5.17e5	5.62e5	inactive

3 entries from above, arranged by “ATP luminescence, replicate 2 (RLU)”, high to low.
gene	dsRNA	ATP z-score, duplicate mean	ATP luminescence, replicate 1 (RLU)	ATP luminescence, replicate 2 (RLU)	call
Tmem63 (Transmembrane protein 63)	DRSC27402	0.196	8.80e5	1.15e6	inactive
mthl3 (methuselah-like 3)	DRSC06997	1.01	8.02e5	8.77e5	inactive
mthl3 (methuselah-like 3)	DRSC24927	-1.11	6.61e5	7.63e5	inactive
